From article PMC7063070
These are yes or no findings as the source states them, for the method shown. In cells and extracts the contact can be indirect. A result given as binding can be weak or reduced; the word gives no strength.

Target: integrin αVβ5 (human (endogenous in MDA-MB-435S))
Assay: isolation of cross-linked integrin adhesion complexes with western blot; integrin adhesion complexes isolated as for MS (DTBP cross-linking, removal of cell bodies), blotted; MDA-MB-435S compared with the integrin αV knock-down clones 2αV and 3αV; no bait

B1: KN motif and ankyrin repeat domain-containing protein 2 (KANK2) (protein, UniProt Q63ZY3 1-851)
chain: MAQVLHVPAPFPGTPGPASPPAFPAKDPDPPYSVETPYGYRLDLDFLKYVDDIEKGHTLRRVAVQRRPRLSSLPRGPGSWWTSTESLCSNASGDSRHSAYSYCGRGFYPQYGALETRGGFNPRVERTLLDARRRLEDQAATPTGLGSLTPSAAGSTASLVGVGLPPPTPRSSGLSTPVPPSAGHLAHVREQMAGALRKLRQLEEQVKLIPVLQVKLSVLQEEKRQLTVQLKSQKFLGHPTAGRGRSELCLDLPDPPEDPVALETRSVGTWVRERDLGMPDGEAALAAKVAVLETQLKKALQELQAAQARQADPQPQAWPPPDSPVRVDTVRVVEGPREVEVVASTAAGAPAQRAQSLEPYGTGLRALAMPGRPESPPVFRSQEVVETMCPVPAAATSNVHMVKKISITERSCDGAAGLPEVPAESSSSPPGSEVASLTQPEKSTGRVPTQEPTHREPTRQAASQESEEAGGTGGPPAGVRSIMKRKEEVADPTAHRRSLQFVGVNGGYESSSEDSSTAENISDNDSTENEAPEPRERVPSVAEAPQLRPAGTAAAKTSRQECQLSRESQHIPTAEGASGSNTEEEIRMELSPDLISACLALEKYLDNPNALTERELKVAYTTVLQEWLRLACRSDAHPELVRRHLVTFRAMSARLLDYVVNIADSNGNTALHYSVSHANFPVVQQLLDSGVCKVDKQNRAGYSPIMLTALATLKTQDDIETVLQLFRLGNINAKASQAGQTALMLAVSHGRVDVVKALLACEADVNVQDDDGSTALMCACEHGHKEIAGLLLAVPSCDISLTDRDGSTALMVALDAGQSEIASMLYSRMNIKCSFAPMSDDESPTSSSAEE
For B1, the binding was “binds”.
